Measured values as given in PubChem BioAssay AID1117319 (Southern Research Institute, 2015).
In all, about 260,000 compounds went through this assay and about 1,500 (0.58%) were called active. Inconclusive means that the source gave no clear call. Such entries were picked first, then a sample of the others.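 How the source made its calls: active means inhibition above a set limit at one or more doses, reproduced on every date tested; inconclusive means results disagree between test dates, or hit never tested in dose response; inactive means the rest.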

The chains behind the UniProt entries cited, without tags or fusion partners. Where a name states a change or a piece, a line headed by the entry shows the natural chain unless it says otherwise.
UniProt P69720: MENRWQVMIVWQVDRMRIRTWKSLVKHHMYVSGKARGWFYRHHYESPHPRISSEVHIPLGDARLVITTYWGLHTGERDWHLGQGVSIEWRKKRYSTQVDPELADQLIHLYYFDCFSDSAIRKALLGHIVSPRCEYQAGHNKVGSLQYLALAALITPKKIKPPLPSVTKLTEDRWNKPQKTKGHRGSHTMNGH
UniProt P69721: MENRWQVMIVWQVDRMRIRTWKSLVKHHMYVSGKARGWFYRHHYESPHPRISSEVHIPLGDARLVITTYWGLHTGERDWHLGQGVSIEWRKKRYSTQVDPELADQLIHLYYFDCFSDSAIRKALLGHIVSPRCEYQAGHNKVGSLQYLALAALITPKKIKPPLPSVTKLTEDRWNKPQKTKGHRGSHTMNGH
UniProt P69722: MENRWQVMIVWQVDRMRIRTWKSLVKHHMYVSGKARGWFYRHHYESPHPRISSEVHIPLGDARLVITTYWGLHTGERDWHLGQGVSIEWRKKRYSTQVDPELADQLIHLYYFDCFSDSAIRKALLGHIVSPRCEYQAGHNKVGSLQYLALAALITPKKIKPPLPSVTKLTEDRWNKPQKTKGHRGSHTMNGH
UniProt P69723: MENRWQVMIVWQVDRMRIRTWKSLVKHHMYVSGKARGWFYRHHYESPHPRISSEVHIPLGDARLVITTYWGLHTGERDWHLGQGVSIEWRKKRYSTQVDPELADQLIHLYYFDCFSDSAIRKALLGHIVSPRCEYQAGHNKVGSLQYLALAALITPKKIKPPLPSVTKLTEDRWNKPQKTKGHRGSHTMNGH
UniProt Q9HC16: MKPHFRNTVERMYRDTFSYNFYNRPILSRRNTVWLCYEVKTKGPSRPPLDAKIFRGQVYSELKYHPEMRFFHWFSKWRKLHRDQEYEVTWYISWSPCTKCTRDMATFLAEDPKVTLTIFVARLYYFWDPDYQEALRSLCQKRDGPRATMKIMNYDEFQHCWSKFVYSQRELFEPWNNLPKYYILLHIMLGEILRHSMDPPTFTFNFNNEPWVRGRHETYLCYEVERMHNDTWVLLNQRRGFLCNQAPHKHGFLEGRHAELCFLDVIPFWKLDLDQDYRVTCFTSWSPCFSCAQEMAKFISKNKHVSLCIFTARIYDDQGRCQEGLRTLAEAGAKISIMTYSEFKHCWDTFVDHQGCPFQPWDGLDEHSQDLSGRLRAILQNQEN

biological target: Virion infectivity factor (Human immunodeficiency virus type 1 group M subtype B (isolate BH10)) + Virion infectivity factor (Human immunodeficiency virus type 1 group M subtype B (isolate BRU/LAI)) + Virion infectivity factor (Human immunodeficiency virus type 1 group M subtype B (isolate PCV12)) + Virion infectivity factor (Human immunodeficiency virus type 1 group M subtype B (isolate HXB2)) + DNA dC->dU-editing enzyme APOBEC-3G (Homo sapiens) (UniProt P69720+P69721+P69722+P69723+Q9HC16); assay: inhibitors of Vif binding to APOBEC3G peptide, primary screen, biochemical, TR-FRET, GST-Vif 1-94, biotin-A3G peptide, dose response retest (AID 1117319); conditions: hits give high values;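 further: Vif residues 1-94 fused to GST binding biotinylated APOBEC3G peptide 110-148; 0% = full assay without inhibitor and 100% = GST in place of GST-Vif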

Structure (SMILES)	inhibition
COc1cc(/C=C2\CC/C(=C\c3cc(OC)c(OC)c(OC)c3)C2=O)cc(OC)c1OC	inactive: 2.04%
Cc1n[nH]c(=S)n(/N=C/c2cccs2)c1=O	inactive: -1.81%
Cc1cc(C)c2c(c1)/C(=N/NS(=O)(=O)c1ccccc1)CCC2	inconclusive: 35.4%
COc1cc(NC(=O)c2cccnc2)ccc1-c1cc2ccccc2oc1=O	inconclusive: 54.5%
Cc1cc(C)cc(OCc2ccc(C(=O)O)o2)c1	inactive: 9.08%
N#Cc1c2c(c(NCc3ccco3)n3c1nc1ccccc13)CCC2	inconclusive: 47.9%
Cc1cc(-c2c(C)[nH]n(-c3ccc(Cl)cc3)c2=O)n(-c2ccc(Cl)cc2)n1	inconclusive: 36.2%
Cn1cc(Br)c(-c2cccc(NC(=O)CCCC(=O)O)c2)n1	inconclusive: 54.4%
CCCCCCc1c(O)c2ccccc2[nH]c1=O	inconclusive: 35.6%
COCCCNc1ncnc2nc[nH]c12	inconclusive: 35.6%
NNC(=O)c1nnn(-c2nonc2N)c1CN1CCc2ccccc2C1	inconclusive: 38.5%
O=C(NCc1ccccc1)C1=C[C@H](C2CC2)C[C@H](OCCCCO)O1	inactive: -0.51%
CCc1nnc(NC(=O)c2ccc(OC)cc2OC)s1	inconclusive: 44%
Cc1ccc(C(=O)NC(=S)Nc2cccc(-c3nc4ccccc4s3)c2)cc1	inactive: 9.8%
CC(C)N=c1scc(-c2ccco2)n1/N=C/c1ccc(O)c(O)c1	inconclusive: 60.5%
CNC(=O)C(=O)NCCN1CCN(C(=O)c2ccc([N+](=O)[O-])cc2)CC1	inconclusive: 39.7%
Cc1ccc(SCC(=O)N(C)CC(=O)Nc2cccc(F)c2)cc1	inactive: 0.72%
COc1cccc(NC(=O)Nc2cnccn2)c1	inconclusive: 53.1%
CCOc1[nH]n(-c2ccc(Cl)cc2)c(=O)c1C=Nc1ccc(O)cc1	inconclusive: 35.3%
O=C(Cc1cc(=O)[nH][nH]1)N/N=C/C(Cl)=C/c1ccccc1	inconclusive: 56.4%
CCn1c(O)c(N=Nc2ccc(Cl)c(C(=O)O)c2)c2ccccc21	inactive: 16%
CCOc1ccc(N=C/C=C/c2ccccc2)c(O)c1	inconclusive: 44.7%
CCOC(=O)C1CCN(C(=O)c2ccc3c(SCC(=O)O)c4c(nc3c2)CCCC4)CC1	inactive: -8.86%

Single values from the entries so far.
CC(C)N=c1scc(-c2ccco2)n1/N=C/c1ccc(O)c(O)c1 | inhibition: inconclusive: 60.5%
Cc1cc(-c2c(C)[nH]n(-c3ccc(Cl)cc3)c2=O)n(-c2ccc(Cl)cc2)n1 | inhibition: inconclusive: 36.2%
O=C(Cc1cc(=O)[nH][nH]1)N/N=C/C(Cl)=C/c1ccccc1 | inhibition: inconclusive: 56.4%
CNC(=O)C(=O)NCCN1CCN(C(=O)c2ccc([N+](=O)[O-])cc2)CC1 | inhibition: inconclusive: 39.7%

The results go on:

Structure (SMILES)	inhibition
Cc1cc(C)n(-c2ccc3nnc(C)n3n2)n1	inconclusive: 46.4%
O=C(NC(=S)Nc1ccc(Cl)cn1)C12CC3CC(CC(C3)C1)C2	inconclusive: 48.5%
COc1ccc(NC(=O)C2=CN3CCS(=O)(=O)N=C3C=C2)c(OC)c1	inconclusive: 39.5%
Cc1ccc(C(=O)NCc2ccc(N3CCN(C(=O)OC(C)(C)C)CC3)cc2)cc1	inconclusive: 38.3%
CN(C)S(=O)(=O)N(CC(=O)NCc1ccccc1)c1ccccc1	inconclusive: 55.6%
CC(=O)c1ccc(N2CCN(C(=O)c3ccc4c(=O)n(-c5ccccc5)c(=O)[nH]c4c3)CC2)cc1	inconclusive: 44.5%
CC(=O)C1=C(O)C(=O)N(CCc2c[nH]c3ccccc23)C1c1cccc(O)c1 (stereo unspecified)	inconclusive: 35.5%
CCOC(=O)N1C2=NC(C(=O)OC)=C(C(=O)OC)[C@@H]3Nc4ccccc4[C@]23C[C@H]1C(=O)OC	inactive: 4.32%
COc1ccc(CC(=O)N2CCC(Nc3nc4ccccc4n3Cc3ccc(F)cc3)CC2)cc1	inconclusive: 53.2%
Cc1cc(C)n(-c2nc(C)nc3c2cnn3-c2ccccc2)n1	inconclusive: 46.6%
CC1=C(C#N)c2nc(N)c(C#N)c(C)c2/C1=C\c1ccc(OCC(=O)O)c(Cl)c1	inconclusive: 42.4%
O=C(CSc1nnc(SCc2ccccc2Cl)s1)N/N=C/c1ccc(C(=O)O)cc1	inconclusive: 62.8%
Cc1ccc(S(=O)(=O)N2CCN(CC(O)c3ccccc3)CC2)cc1 (stereo unspecified)	inconclusive: 46%
COc1ccccc1N1C(=O)C2C(C(=O)c3ccccc3)=NN(c3ccc(C)cc3)C2C1=O (stereo unspecified)	inconclusive: 40.9%
N#CC(C(=O)c1ccc(S(=O)(=O)N2CCCCCC2)cc1)c1nc2ccccc2[nH]1 (stereo unspecified)	inconclusive: 45%
COc1cc(OC)c(/C=N/NC(=O)c2ccc(NC(C)=O)cc2)cc1Br	inconclusive: 40.6%
O=C(N/N=C/c1cc(Br)c(O)c(Br)c1)c1cccnc1	inactive: -0.54%
CCOC(=O)N1CCN(C(=O)c2cccc(OC)c2O)CC1	inconclusive: 58.7%
COc1ccccc1NC(=S)NCc1cccs1	inconclusive: 52.9%
COc1ccc(N2CCN(C(=O)/C(C#N)=C/c3ccccc3)CC2)cc1	inconclusive: 40.7%
O=C(Cc1ccc(F)cc1)Nc1nnc(SCC(=O)NC2CCCC2)s1	inconclusive: 63.7%
COc1cc(/C=C/C(=O)O)cc(S(=O)(=O)Nc2ccccc2Cl)c1OC	inconclusive: 38.5%
COc1ccc(Cc2nc(=S)[nH][nH]2)cc1Br	inconclusive: 41%

Structure (SMILES)	inhibition
CC(=O)c1c(C)n(C)c2ccc(O)cc12	inconclusive: 42.6%
CCCOc1ccc(-c2c(C(=O)N/N=C/c3cccs3)nnn2-c2nonc2N)cc1	inconclusive: 38.4%
O=C(CN(Cc1cccs1)C(=O)CSc1nnc(COc2ccccc2)o1)NC1CCCCC1	inactive: 3.54%
CC(NC(=O)CN(C)S(=O)(=O)c1ccc(F)cc1)C1CC2CCC1C2 (stereo unspecified)	inconclusive: 57.4%
Cc1csc(NC(=O)/C=C/c2ccc(C)o2)n1	inconclusive: 39.6%
C=CCc1ccc(OCCCOc2ccc(C)cc2OC)c(OC)c1	inconclusive: 47.8%
COc1cccc(CN2CCN(CCc3ccccc3)C(CCO)C2)c1OC (stereo unspecified)	inconclusive: 37.1%
COc1cccc2c1OCC(CN1CCN(C3CCCCC3)C(CCO)C1)=C2 (stereo unspecified)	inconclusive: 42.1%
CC1(c2ccccc2)CC(C)(C)N2C(=O)C(=O)c3cccc1c32 (stereo unspecified)	inconclusive: 34.2%
CC(NC(=O)NC(N)=O)(C(F)(F)F)C(F)(F)F	inconclusive: 12.5%
O=C(CN1CCN(c2ccc(O)cc2)CC1)NC1CCCc2ccccc21 (stereo unspecified)	inconclusive: 58.5%
O=C(Nc1cccc(C(F)(F)F)c1)C12CC3CC(CC(C3)C1)C2	inconclusive: 36.9%
CCOC(=O)Cn1c(-c2cccnc2Cl)nc2ccccc21	inconclusive: 59.1%
CCCCC(c1nnnn1CCOC)N1CCN(C)CC1 (stereo unspecified)	inconclusive: 46.9%
O=C1OCCC1Sc1nnc(-c2cccnc2)n1-c1ccccc1F (stereo unspecified)	inactive: 5.98%
CC(C)C(=O)Nc1ccc(C(=O)Nc2nnc(C(C)C)s2)cc1	inconclusive: 41.9%
O=C(O)Cc1sc(NCc2ccco2)nc1-c1ccccc1	inconclusive: 40.2%
COC(=O)c1ccc(-c2ccc(C(=O)N3CCCN(C)CC3)cc2)cc1	inconclusive: 44.6%
NC(=O)c1cc2cc(Cl)ccc2oc1=O	inconclusive: 35%
O=C(Cn1cc2c(n1)CCCC2)NC1CCCCCC1	inconclusive: 56.1%
CC(C)(C)NC(=O)c1ccc2c(c1)C1C3CCC(C3)C1C(c1ccccc1)N2 (stereo unspecified)	inconclusive: 33.5%
O=C(/C=C/c1ccc([N+](=O)[O-])cc1)c1cccnc1	inconclusive: 44%
O=C(O)Cc1cc(I)c(Oc2ccc(O)c(I)c2)c(I)c1	inconclusive: 40.5%

Structure (SMILES)	inhibition
O=C1CCCc2nc(N3CCN(Cc4ccccc4)CC3)ncc21	inconclusive: 35.5%
Cc1ccc(/C=C2\C(=O)Nc3ccccc32)o1	inconclusive: 54.5%
Cc1cc(Nc2ncc(Cl)cc2Cl)n(-c2ccccn2)n1	inconclusive: 52.3%
Cc1cc(/C=N/n2cnnc2)c(C)n1-c1cc(Cl)ccc1Cl	inconclusive: 33.6%
COc1ccccc1N(CC(=O)NCc1cccnc1)S(C)(=O)=O	inconclusive: 38%
O=C(NCCCN1CCOCC1)C1(c2ccccc2)CCOCC1	inconclusive: 49.6%
O=C(c1ccc2nc3ccccc3c(=O)n2c1)N1CCN(Cc2ccc3c(c2)OCO3)CC1	inconclusive: 45.4%
COc1cccc(CNC(=O)CCN2C(=S)NC(C)(C)CC2C)c1 (stereo unspecified)	inconclusive: 38.3%
O=C(N=Nc1c(O)[nH]c2ccc(Br)cc12)c1cc(-c2cccc3ccccc23)n[nH]1	inconclusive: 39.2%
Cc1ccc(-n2nc(C)c3c(C)c(CCC(=O)NCc4ccco4)c(C)nc32)cc1	inconclusive: 43.2%
COC(=O)CCC(=O)Nc1nccs1	inconclusive: 47.9%
C=CCn1c(SCc2c(F)c(F)c(F)c(F)c2F)nc(O)cc1=O	inconclusive: 38.5%
CCOC(=O)C(Cc1ccnnc1)=NO	inactive: -0.8%
O=C(NCCCn1ccnc1)/C(=C\c1ccco1)NC(=O)c1ccco1	inconclusive: 33%
CCC(C)NC(=O)NCc1ccccc1F (stereo unspecified)	inconclusive: 43.5%
Cc1cc(C)n2cc(CSc3nnnn3-c3ccc(Cl)cc3)nc2n1	inconclusive: 47.5%
O=c1cc(O)c2sc(Nc3ccc(F)c(Cl)c3)nc2[nH]1	inconclusive: 35.1%
CCOc1ccc2c(c1)n([O-])c1c([n+]2=O)CCCC1	inactive: 23.4%
Cc1ccc(C)c(NC(=O)CN(C)C(=O)Cc2coc3cc(C)c(C)cc23)c1	inactive: 0.3%
COCCNC(=O)c1cc(-c2ccncc2)nc2ccc(S(=O)(=O)N3CCOCC3)cc12	inactive: -13.5%
COc1ccc(NC(=S)N2CCC(c3nc4ccccc4[nH]3)CC2)c(OC)c1	inconclusive: 37.2%
CCOC(=O)CSc1nnc(-c2ccoc2C)n1-c1ccc(OCC)cc1	inconclusive: 60%
